From US20040086503A1
These are yes or no findings as the source states them, for the method shown. A result given as binding can be weak or reduced; the word gives no strength.

Chains of the proteins cited; added tags and fusions are not shown. Lines headed by an entry give the natural chain unless they say otherwise; changes in a name come on top.
UniProt P08069: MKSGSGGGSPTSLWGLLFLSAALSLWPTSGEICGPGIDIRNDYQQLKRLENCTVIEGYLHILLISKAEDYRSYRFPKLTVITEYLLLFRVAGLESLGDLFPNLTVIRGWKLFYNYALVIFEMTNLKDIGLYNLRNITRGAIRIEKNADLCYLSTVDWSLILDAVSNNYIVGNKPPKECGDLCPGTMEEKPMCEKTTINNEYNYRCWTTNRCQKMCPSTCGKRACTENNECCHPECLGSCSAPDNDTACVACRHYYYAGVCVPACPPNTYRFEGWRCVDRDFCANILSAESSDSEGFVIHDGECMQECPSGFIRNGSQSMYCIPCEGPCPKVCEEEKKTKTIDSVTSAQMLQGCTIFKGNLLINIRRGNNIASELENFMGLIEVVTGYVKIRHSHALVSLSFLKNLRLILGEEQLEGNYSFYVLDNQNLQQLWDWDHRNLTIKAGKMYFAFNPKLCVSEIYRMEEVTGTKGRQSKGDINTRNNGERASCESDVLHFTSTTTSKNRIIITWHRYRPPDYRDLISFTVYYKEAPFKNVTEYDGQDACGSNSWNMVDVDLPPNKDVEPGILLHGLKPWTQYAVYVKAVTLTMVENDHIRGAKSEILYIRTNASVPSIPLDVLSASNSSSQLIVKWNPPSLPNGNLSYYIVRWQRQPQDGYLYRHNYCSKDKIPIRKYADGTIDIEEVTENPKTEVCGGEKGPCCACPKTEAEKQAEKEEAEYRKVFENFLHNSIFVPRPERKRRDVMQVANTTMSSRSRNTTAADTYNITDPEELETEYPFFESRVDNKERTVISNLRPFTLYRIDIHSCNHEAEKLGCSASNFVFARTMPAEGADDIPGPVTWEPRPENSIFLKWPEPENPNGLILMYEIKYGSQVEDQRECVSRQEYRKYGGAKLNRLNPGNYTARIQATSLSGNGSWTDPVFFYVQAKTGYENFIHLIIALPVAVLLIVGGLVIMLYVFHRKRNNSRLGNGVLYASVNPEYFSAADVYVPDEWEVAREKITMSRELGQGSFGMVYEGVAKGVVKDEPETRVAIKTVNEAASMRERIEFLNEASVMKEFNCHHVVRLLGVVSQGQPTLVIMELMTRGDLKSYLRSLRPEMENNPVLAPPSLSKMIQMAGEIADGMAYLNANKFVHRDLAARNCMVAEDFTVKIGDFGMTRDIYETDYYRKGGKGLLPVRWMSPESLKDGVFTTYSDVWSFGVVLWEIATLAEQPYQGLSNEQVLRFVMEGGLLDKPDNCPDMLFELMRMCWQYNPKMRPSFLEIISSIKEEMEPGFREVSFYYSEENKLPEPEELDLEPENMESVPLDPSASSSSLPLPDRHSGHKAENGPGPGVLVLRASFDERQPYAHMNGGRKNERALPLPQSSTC

Experiments:
[1] = target: extracellular domain of IGF-IR (human) (UniProt P08069); assay: SPR (BIAcore) kinetic analyses
[2] = target: COS7 IGF-IR (old world monkey (COS7 cells)); assay: immunoprecipitation and Western blot on cells
[3] = target: extracellular domain of IGF-IR (human) (UniProt P08069); assay: BIAcore competition on sensorchip-bound IGF-IR ECD

Binder | binding [1] | binding [2] | binding [3]
anti-IGF-IR antibody 2.12.1 (antibody, V domains shown) VH: QAQLVESGGGLVKPGGSLRLSCAASGFTFSDYYMSWIRQAPGKGLEWVSYISSSGSTRDYADSVKGRFTISRDNAKNSLYLQMNSLRAEDTAVYYCVRDGVETTFYYYYYGMDVWGQGTTVTVSS VL: DIQMTQSPSSLSASVGDRVTFTCRASQDIRRDLGWYQQKPGKAPKRLIYAASRLQSGVPSRFSGSGSGTEFTLTISSLQPEDFATYYCLQHNNYPRTFGQGTEVEIIR | binds | binds | binds
anti-IGF-IR antibody 2.14.3 (antibody, human IgG2, V domains shown) VH: GPGLVKPSETLSLTCTVSGGSISNYYWSWIRQPAGKGLEWIGRIYTSGSPNYNPSLKSRVTMSVDTSKNQFSLKLNSVTAADTAVYYCAVTIFGVVIIFDYWGQGTLVTVSS VL: SSLSASVGDRVTFTCRASQDIRRDLGWYQQKPGKAPKRLIYAASRLQSGVPSRFSGSGSGTEFTLTISSLQPEDFATYYCLQHNNYPRTFGQGTEVEIIR | binds |  | binds
anti-IGF-IR antibody 4.17.3 (antibody, human IgG2, V domains shown) VH: PGLVKPSETLSLTCTVSGGSISSYYWSWIRQPPGKGLEWIGYIYYSGSTNYNPSLKSRVTISVDTSKNQFSLKLSSVTAADTAVYYCARTYSSSFYYYGMDVWGQGTTVTVSS VL: GDRVTITCRASQSISTFLNWYQQKPGKAPKLLIHVASSLQGGVPSRFSGSGSGTDFTLTISSLQPEDFATYYCQQSYNAPLTFGGGTKVEIK | binds |  | 
